Experimental data as given in the supplement of paper PMC11732987, “Enantioselective OTUD7B fragment discovery through chemoproteomics screening and high-throughput optimisation” (Communications Chemistry, 2025).
The list shows a part of the results. The data scatter; read single values as rough.

Protein sequences, listed by entry. Tags and fused reporters are not part of them. Lines headed by an entry give the natural chain unless they say otherwise; changes in a name come on top.
UniProt Q2NKX8: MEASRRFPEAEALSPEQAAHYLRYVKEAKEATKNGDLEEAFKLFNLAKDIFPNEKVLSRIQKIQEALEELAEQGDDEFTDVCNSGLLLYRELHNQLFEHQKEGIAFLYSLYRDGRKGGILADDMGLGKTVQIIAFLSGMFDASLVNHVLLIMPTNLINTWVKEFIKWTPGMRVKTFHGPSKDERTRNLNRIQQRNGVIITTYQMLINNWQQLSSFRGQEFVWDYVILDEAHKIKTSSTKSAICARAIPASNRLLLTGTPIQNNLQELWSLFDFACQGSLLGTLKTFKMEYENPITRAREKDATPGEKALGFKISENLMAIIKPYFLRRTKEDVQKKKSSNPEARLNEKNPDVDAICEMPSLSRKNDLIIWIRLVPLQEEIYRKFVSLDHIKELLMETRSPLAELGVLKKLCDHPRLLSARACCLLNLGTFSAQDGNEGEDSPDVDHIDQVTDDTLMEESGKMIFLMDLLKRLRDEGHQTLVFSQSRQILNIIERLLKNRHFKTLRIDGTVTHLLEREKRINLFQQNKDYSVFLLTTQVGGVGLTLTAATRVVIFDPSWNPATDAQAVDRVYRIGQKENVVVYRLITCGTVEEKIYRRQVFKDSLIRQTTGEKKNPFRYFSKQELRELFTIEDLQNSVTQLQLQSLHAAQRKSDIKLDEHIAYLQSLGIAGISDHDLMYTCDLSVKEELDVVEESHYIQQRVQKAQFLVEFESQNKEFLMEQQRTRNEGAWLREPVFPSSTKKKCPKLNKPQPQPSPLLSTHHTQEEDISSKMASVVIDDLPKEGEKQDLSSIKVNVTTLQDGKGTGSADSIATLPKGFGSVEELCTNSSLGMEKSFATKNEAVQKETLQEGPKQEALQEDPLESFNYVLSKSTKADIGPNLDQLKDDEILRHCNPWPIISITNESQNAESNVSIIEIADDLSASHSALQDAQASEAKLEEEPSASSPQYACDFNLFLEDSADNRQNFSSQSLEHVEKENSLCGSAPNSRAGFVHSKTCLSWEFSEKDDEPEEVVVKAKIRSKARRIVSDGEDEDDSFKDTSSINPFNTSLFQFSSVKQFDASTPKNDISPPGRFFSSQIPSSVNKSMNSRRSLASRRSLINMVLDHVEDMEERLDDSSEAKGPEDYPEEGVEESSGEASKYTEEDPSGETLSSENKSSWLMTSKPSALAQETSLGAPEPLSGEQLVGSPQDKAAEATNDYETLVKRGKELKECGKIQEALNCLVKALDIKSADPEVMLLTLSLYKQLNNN
UniProt O60447: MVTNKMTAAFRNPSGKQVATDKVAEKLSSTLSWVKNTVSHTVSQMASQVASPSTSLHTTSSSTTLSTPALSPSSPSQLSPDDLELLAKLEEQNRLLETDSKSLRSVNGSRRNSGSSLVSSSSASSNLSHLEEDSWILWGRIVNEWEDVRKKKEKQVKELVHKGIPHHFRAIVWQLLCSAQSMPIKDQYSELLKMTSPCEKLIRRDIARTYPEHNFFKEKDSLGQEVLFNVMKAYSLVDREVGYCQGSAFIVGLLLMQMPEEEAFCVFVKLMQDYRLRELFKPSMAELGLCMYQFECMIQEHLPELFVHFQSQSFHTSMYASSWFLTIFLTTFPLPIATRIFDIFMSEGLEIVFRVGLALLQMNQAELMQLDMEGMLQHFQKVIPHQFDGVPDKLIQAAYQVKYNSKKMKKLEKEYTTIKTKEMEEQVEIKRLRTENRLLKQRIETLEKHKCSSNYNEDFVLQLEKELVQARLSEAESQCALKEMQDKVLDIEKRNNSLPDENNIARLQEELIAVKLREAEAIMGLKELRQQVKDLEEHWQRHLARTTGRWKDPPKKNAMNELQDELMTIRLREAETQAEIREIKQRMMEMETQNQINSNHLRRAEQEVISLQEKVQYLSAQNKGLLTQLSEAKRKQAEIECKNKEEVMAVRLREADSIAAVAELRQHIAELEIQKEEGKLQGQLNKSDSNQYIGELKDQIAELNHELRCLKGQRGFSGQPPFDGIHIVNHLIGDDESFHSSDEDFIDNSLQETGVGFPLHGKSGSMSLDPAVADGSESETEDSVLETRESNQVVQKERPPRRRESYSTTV
UniProt Q96EB1: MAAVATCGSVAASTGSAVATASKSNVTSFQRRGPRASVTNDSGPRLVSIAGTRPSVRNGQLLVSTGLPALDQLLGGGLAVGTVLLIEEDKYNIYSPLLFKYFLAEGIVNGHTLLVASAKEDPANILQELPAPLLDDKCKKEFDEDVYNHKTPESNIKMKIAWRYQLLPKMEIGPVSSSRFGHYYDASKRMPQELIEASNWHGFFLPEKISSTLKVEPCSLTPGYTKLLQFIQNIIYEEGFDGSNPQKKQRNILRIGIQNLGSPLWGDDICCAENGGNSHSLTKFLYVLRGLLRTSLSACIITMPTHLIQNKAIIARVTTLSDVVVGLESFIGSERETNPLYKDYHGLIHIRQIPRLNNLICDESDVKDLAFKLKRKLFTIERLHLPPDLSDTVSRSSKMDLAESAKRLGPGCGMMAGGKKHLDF
UniProt Q96GK7: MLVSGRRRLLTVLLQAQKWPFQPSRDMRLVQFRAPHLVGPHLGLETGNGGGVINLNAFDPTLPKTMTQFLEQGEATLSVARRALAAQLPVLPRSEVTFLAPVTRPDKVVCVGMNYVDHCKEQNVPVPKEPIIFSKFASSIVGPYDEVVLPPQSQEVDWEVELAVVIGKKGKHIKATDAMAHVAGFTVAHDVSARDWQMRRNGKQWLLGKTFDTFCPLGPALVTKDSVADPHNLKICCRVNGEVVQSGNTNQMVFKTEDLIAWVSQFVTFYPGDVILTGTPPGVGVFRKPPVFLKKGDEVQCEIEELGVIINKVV
UniProt Q9UPT5: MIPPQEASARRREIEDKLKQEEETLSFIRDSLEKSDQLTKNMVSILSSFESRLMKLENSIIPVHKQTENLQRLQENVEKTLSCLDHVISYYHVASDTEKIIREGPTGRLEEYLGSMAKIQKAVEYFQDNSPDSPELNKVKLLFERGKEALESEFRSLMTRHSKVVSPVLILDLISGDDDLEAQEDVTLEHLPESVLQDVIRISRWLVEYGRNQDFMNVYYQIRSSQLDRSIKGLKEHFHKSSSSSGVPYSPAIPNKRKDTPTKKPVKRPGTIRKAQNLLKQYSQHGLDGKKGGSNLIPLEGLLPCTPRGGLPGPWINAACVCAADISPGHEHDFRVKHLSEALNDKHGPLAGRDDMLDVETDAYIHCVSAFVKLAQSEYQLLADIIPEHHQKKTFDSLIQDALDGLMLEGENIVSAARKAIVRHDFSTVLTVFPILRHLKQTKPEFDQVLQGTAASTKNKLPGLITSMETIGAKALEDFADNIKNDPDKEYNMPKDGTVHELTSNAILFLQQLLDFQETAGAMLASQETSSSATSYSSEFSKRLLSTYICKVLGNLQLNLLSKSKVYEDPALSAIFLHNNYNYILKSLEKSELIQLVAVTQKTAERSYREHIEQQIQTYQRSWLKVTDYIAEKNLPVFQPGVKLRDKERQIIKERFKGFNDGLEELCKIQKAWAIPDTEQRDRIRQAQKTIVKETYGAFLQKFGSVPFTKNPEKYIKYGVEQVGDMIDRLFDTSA
UniProt P55199: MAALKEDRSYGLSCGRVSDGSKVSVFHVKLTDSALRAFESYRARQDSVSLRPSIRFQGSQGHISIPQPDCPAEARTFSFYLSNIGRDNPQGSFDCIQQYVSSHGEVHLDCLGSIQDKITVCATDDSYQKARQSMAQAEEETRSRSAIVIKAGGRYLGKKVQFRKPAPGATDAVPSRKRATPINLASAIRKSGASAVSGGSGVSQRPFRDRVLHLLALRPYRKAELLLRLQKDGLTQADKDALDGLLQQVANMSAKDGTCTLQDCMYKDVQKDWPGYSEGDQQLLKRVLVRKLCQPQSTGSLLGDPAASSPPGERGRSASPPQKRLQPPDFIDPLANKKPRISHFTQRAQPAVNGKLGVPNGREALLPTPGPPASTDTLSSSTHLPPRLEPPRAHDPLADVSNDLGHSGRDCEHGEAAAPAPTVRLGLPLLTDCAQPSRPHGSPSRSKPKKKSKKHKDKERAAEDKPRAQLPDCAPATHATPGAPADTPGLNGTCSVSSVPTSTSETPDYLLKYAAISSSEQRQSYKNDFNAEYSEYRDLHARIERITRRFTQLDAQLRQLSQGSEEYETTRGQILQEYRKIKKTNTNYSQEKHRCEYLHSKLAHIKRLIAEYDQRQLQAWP
UniProt Q52LR7: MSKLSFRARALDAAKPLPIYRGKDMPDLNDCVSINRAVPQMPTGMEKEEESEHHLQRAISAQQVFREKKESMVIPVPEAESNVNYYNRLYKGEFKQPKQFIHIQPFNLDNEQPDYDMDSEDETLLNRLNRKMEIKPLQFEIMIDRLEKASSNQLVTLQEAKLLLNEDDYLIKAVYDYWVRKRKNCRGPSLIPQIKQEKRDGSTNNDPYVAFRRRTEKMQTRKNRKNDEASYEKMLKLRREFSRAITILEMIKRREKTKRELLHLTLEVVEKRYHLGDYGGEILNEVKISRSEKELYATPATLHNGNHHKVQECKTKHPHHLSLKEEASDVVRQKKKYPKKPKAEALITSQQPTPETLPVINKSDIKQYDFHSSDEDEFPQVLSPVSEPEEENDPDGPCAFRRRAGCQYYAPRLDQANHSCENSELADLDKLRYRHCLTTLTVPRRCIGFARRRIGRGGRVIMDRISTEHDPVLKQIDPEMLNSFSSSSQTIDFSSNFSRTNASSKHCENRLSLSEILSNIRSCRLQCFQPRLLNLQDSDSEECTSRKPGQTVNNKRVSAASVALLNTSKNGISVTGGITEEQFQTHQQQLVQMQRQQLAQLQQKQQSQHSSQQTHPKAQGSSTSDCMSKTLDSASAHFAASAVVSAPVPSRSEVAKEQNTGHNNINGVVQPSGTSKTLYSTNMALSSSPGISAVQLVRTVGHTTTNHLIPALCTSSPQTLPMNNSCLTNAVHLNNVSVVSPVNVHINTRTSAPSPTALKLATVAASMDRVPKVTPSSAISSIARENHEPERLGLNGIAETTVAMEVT
UniProt Q6IA86: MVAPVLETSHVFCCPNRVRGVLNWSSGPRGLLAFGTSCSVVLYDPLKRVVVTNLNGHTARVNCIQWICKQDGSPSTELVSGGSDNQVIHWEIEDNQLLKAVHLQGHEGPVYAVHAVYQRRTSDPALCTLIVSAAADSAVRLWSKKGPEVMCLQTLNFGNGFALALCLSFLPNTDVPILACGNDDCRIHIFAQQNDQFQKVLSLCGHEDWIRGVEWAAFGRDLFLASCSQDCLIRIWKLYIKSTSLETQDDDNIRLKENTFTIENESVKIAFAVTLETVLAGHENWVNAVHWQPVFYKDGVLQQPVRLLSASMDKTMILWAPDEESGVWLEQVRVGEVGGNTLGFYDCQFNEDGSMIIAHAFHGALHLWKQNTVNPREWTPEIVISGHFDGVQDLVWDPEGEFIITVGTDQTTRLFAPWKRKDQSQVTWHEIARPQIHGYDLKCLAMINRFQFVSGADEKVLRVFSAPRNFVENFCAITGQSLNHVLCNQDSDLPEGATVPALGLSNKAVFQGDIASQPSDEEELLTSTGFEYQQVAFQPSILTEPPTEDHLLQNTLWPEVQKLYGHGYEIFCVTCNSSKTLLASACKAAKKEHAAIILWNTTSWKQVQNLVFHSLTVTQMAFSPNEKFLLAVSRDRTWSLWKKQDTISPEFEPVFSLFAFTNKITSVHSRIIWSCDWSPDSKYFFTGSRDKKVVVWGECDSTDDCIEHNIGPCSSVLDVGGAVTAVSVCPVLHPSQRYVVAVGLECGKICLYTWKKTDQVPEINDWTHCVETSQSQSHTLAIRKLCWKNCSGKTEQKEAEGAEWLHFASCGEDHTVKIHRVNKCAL
UniProt Q14241: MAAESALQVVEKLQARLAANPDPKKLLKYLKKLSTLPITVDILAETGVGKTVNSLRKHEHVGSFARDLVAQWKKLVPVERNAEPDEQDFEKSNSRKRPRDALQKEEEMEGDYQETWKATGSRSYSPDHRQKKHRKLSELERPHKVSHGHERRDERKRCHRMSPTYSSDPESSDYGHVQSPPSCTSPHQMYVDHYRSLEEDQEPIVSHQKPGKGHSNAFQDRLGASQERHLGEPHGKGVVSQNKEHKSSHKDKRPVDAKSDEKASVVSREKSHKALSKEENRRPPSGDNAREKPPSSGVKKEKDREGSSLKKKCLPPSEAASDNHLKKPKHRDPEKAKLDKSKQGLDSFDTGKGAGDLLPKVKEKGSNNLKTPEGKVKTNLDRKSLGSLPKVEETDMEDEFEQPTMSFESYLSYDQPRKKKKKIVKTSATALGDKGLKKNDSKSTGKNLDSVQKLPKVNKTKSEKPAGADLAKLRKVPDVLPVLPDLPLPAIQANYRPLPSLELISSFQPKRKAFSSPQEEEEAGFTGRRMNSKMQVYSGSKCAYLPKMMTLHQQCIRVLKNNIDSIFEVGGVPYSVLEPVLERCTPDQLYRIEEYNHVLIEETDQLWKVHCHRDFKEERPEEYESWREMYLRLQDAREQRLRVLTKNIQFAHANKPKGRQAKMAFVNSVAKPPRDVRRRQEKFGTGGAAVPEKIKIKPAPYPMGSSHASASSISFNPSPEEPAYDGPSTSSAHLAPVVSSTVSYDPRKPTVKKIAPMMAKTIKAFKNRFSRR

compound: ClCC(=O)N[C@H]1CCCc2ccccc12; experiment: log2 mean competition ratio of IA-DTB cysteine labelling (DMSO/compound) (log2 ratio); higher = stronger cysteine engagement by compound; conditions: 50 µM; treatment time: 4 h; cell line lysate: HEK293T
Protocol: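 IA-DTB competitive cysteine chemoproteomics in HEK293T RIPA lysate. Lysates were treated with compound 29 or 30 at 50 or 200 µM for 4 h, then IA-DTB (500 µM, 1 h), trypsin-digested, NeutrAvidin-enriched and analysed by diaPASEF. Competition ratio = intensity DMSO / intensity compound (n=4 treated, n=64 DMSO); binding: mean log2 CR ≥ 1 and p ≤ 0.05 plus QC filters. Target is the cysteine site.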

Target | log2 mean competition ratio
ERCC6L C825 (UniProt Q2NKX8) | 0.217
EP400 C3158 (UniProt Q96L91) | 0.0119
ENO1 C357 | -0.212
EVI5 C641 (UniProt O60447) | -0.0547
ERICH1 C415 (UniProt Q86X53) | -0.73
ELP4 C361 (UniProt Q96EB1) | -0.474
FAHD2A C215 (UniProt Q96GK7) | -0.103
EXOC7 C550 (UniProt Q9UPT5) | 0.411
ERCC6L C1213 (UniProt Q2NKX8) | 0.182
ERCC1 C274 (UniProt P07992) | 0.119
ELL C595 (UniProt P55199) | 0.194
EPC2 C626 (UniProt Q52LR7) | -0.0823
EXD2 C168 (UniProt Q9NVH0) | -0.232
ELP2 C746 (UniProt Q6IA86) | 0.108
EPG5 C1538 (UniProt Q9HCE0) | -0.607
FAAP20 C70 (UniProt Q6NZ36) | 0.192
FANCI C650 (UniProt Q9NVI1) | -0.183
ELOA C339 (UniProt Q14241) | 0.324
ERBIN C464 (UniProt Q96RT1) | -0.147
ESCO1 C580 | -0.0143

same assay, conditions: 200 µM; treatment time: 4 h; cell line lysate: HEK293T

Target | log2 mean competition ratio
ERCC6L C825 (UniProt Q2NKX8) | -0.0912
EP400 C3158 (UniProt Q96L91) | -0.0432
ENO1 C357 | 0.0969
EVI5 C641 (UniProt O60447) | 0.192
ERICH1 C415 (UniProt Q86X53) | -0.309
ELP4 C361 (UniProt Q96EB1) | 0.048
FAHD2A C215 (UniProt Q96GK7) | -0.0417
EXOC7 C550 (UniProt Q9UPT5) | 0.0774
ERCC6L C1213 (UniProt Q2NKX8) | -0.0352
ERCC1 C274 (UniProt P07992) | -0.143
ELL C595 (UniProt P55199) | 0.297
EPC2 C626 (UniProt Q52LR7) | 0.124
EXD2 C168 (UniProt Q9NVH0) | 0.00778
ELP2 C746 (UniProt Q6IA86) | -0.199
EPG5 C1538 (UniProt Q9HCE0) | 0.0861
FAAP20 C70 (UniProt Q6NZ36) | 0.354
FANCI C650 (UniProt Q9NVI1) | -0.16
ELOA C339 (UniProt Q14241) | -0.226
ERBIN C464 (UniProt Q96RT1) | 0.00334
ESCO1 C580 | 0.252
